{"source": "PubChem BioAssay AID1259424, University of Nebraska Medical Center, 2018", "aim": "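Find knockdowns that reproduce the expression shifts seen after KSR1 loss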 (primary screen)", "cells": "human HCT116 colon cancer cells", "reagents": "siRNA pool against human genes, 50 nM", "measurement": "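Six signature mRNAs by branched-DNA multiplex assay, scaled to two housekeeping genes and non-targeting median, log2; matched to mean KSR1 knockdown profile by Pearson correlation and euclidean distance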", "direction": "mean correlation with KSR1 profile: higher = expression change more like KSR1 knockdown; mean distance from KSR1 profile: higher = expression change less like KSR1 knockdown", "note": "Here is an unselected part of about 14,000 deposited reagents. 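Higher correlation or smaller distance means closer resemblance to KSR1 loss; control wells, including KSR1 knockdowns, recur on many plates.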 Not all columns of the deposit are shown. Not given: the time to read-out."}
{"gene": "LRRC31 (leucine rich repeat containing 31)", "mean correlation with KSR1 profile": 0.636, "mean distance from KSR1 profile": 2.72}
{"gene": "FNDC1 (fibronectin type III domain containing 1)", "mean correlation with KSR1 profile": 0.777, "mean distance from KSR1 profile": 1.48}
{"gene": "CXCL9 (C-X-C motif chemokine ligand 9)", "mean correlation with KSR1 profile": 0.111, "mean distance from KSR1 profile": 2.39}
{"gene": "MAST1 (microtubule associated serine/threonine kinase 1)", "mean correlation with KSR1 profile": -0.788, "mean distance from KSR1 profile": 2.4}
{"gene": "DDX55 (DEAD-box helicase 55)", "mean correlation with KSR1 profile": -0.417, "mean distance from KSR1 profile": 2.54}
{"gene": "LST1 (leukocyte specific transcript 1)", "mean correlation with KSR1 profile": 0.326, "mean distance from KSR1 profile": 4.3}

Next part (2 carried over from the part before).
{"gene": "DDX55 (DEAD-box helicase 55)", "mean correlation with KSR1 profile": -0.417, "mean distance from KSR1 profile": 2.54}
{"gene": "LST1 (leukocyte specific transcript 1)", "mean correlation with KSR1 profile": 0.326, "mean distance from KSR1 profile": 4.3}
{"gene": "SPANXA1", "mean correlation with KSR1 profile": 0.0971, "mean distance from KSR1 profile": 4.79}
{"gene": "SGSM2 (small G protein signaling modulator 2)", "mean correlation with KSR1 profile": -0.126, "mean distance from KSR1 profile": 2.61}
{"gene": "COL27A1 (collagen type XXVII alpha 1 chain)", "mean correlation with KSR1 profile": 0.275, "mean distance from KSR1 profile": 2.39}
{"gene": "GSK3A (glycogen synthase kinase 3 alpha)", "mean correlation with KSR1 profile": 0.776, "mean distance from KSR1 profile": 1.71}
{"gene": "PHC1 (polyhomeotic homolog 1)", "mean correlation with KSR1 profile": 0.384, "mean distance from KSR1 profile": 1.93}
{"gene": "STATH (statherin)", "mean correlation with KSR1 profile": -0.468, "mean distance from KSR1 profile": 1.49}
{"gene": "ITGA3 (integrin subunit alpha 3)", "mean correlation with KSR1 profile": 0.244, "mean distance from KSR1 profile": 0.984}
{"gene": "PPP1R15A (protein phosphatase 1 regulatory subunit 15A)", "mean correlation with KSR1 profile": 0.0725, "mean distance from KSR1 profile": 1.87}
{"gene": "SETBP1 (SET binding protein 1)", "mean correlation with KSR1 profile": -0.447, "mean distance from KSR1 profile": 2.62}
{"gene": "MAPKBP1 (mitogen-activated protein kinase binding protein 1)", "mean correlation with KSR1 profile": -0.196, "mean distance from KSR1 profile": 1.57}
{"gene": "RETN (resistin)", "mean correlation with KSR1 profile": 0.0371, "mean distance from KSR1 profile": 0.863}
{"gene": "DLG2 (discs large MAGUK scaffold protein 2)", "mean correlation with KSR1 profile": -0.511, "mean distance from KSR1 profile": 2.2}
{"gene": "SH3GL1 (SH3 domain containing GRB2 like 1, endophilin A2)", "mean correlation with KSR1 profile": 0.474, "mean distance from KSR1 profile": 2.01}
